Negatives hold for the conditions tested.

This is an account of results in US20190218553.

This data set concerns the target von Willebrand factor (VWF) (Homo sapiens) (UniProt P04275). As to the kind of experiment: filter binding. To be noted: NB, 2 mM CaCl2, 37 C, purified native protein, label: 5'-32P.
The mark [1] stands for this setting: 2'-F U7,G8,C9,C10,C11,U12,A19,C20,G21,C22,A23,U30, rest 2'-OMe, 3' idT.

As to “ACGAACUGCCCUCAGCUACUUUCAUGUUGCUGACGCACAGACGU [T25 vrt1]”, the binding result (all purines 2'-OMe, all pyrimidines 2'-F, 3' idT) was “no binding”.
For “ACGAACUGCCCUCAGCUACUUUCAUGUUGCUGACGCACAGACGU [T25 vrt2]”, the binding result (all 2'-OMe, 3' idT) is on record as “no binding”.
Take “ACGAACUGCCCUCAGCUACUUUCAUGUUGCUGACGCACAGACGU [T25 vrt7]”: the binding result (2'-OMe G8,A33,G35,A37, other purines ribo, pyrimidines 2'-F, 3' idT) was “no binding”.
Take “ACGAACUGCCCUCAGCUACUUUCAUGUUGCUGACGCACAGACGU [T25 vrt8]”: the binding result (2'-OMe U7-U12 and A33-A37, other purines ribo, other pyrimidines 2'-F, 3' idT) was “no binding”.
Regarding “ACGAACUGCCCUCAGCUACUUUCAUGUUGCUGACGCACAGACGU [T25 vrt18]”, for the setting “2'-OMe G8,C36, other purines ribo, other pyrimidines 2'-F, 3' idT”, the binding result was “no binding”.
As to “ACGAACUGCCCUCAGCUACUUUCAUGUUGCUGACGCACAGACGU [T25 vrt19]”, the binding result (2'-OMe C9,G35, other purines ribo, other pyrimidines 2'-F, 3' idT) is on record as “no binding”.
With “ACGAACUGCCCUCAGCUACUUUCAUGUUGCUGACGCACAGACGU [T25 vrt20]”, under “2'-OMe C10,C11,C34, purines ribo, other pyrimidines 2'-F, 3' idT”, the binding result is “no binding”.
With “ACGAACUGCCCUCAGCUACUUUCAUGUUGCUGACGCACAGACGU [T25 vrt22]”, the binding result (2'-OMe C10, purines ribo, other pyrimidines 2'-F, 3' idT) is reported as “no binding”.
For the sequence “ACGAACUGCCCUCAGCUACUUUCAUGUUGCUGACGCACAGACGU [T25 vrt23]”, the binding result (2'-OMe C11, purines ribo, other pyrimidines 2'-F, 3' idT) was “no binding”.
For the sequence ACGAACUGCCCUCGACGCACAGACGU [T57], where the note is “2'-F C and U, 2'-OH A and G, 3' idT, protein details: factor VIII free, Haematologic Technologies Inc., variant of T25”, the binding result is reported as “no binding”.
Take “ACGAACUGCCCUCGAUCGACGCACAGACGU [T59 vrt20]”: where the note is “2'-F C9,C10,C11,C20,C22,U30, ribo G8, rest 2'-OMe, 3' idT”, the binding result is on record as “no binding”.
“ACGAACUGCCCUCGAUCGACGCACAGACGU [T59 vrt22]”: the binding result (2'-F U7,C9,C10,C11,U12,C20,C22,U30, ribo G8, rest 2'-OMe, 3' idT) was “no binding”.
With “ACGAACUGCCCUCGAUCGACGCACAGACGU [T59 vrt27]”, the binding result (2'-F C9,C10,C11,C20,U30, ribo G21, rest 2'-OMe, 3' idT) is on record as “no binding”.
Regarding “ACGAACUGCCCUCGAUCGACGCACAGACGU [T59 vrt28]”, where the note is “2'-F C9,C10,C11,C20,C22,U30, rest 2'-OMe, 3' idT”, the binding result is “no binding”.
As for “ACGAACUGCCCUCGAUCGACGCACAGACGUAAAAA [T83 vrt8]”, under setting [1], the binding result was “no binding”.
Consider “ACGAACUGCCCUCGAUCGACGCACAGACGUACACG [T84 vrt8]”, for which the binding result under setting [1] is listed as “no binding”.
Still for that read-out and setting: for “ACGAACUGCCCUCGAUCGACGCACAGACGUACCCG [T82 vrt8]” the value was “no binding”.
Regarding “ACGAACUGCCCUCGAUCGACGCACAGACGUUUUUU [T79 vrt8]”, the binding result under setting [1] is “no binding”.
Turning to “ACGAACUGCCCUCGUAUUAUUUCGACGCACAGACGU [T89 vrt8]”, the binding result (2'-F U7,G8,C9,C10,C11,U12,A25,C26,G27,C28,A29,U36, rest 2'-OMe, 3' idT) is given as “no binding”.
With “ACGAACUGCCCUCGUUUCAUCGACGCACAGACGU [T86 vrt8]”, under “2'-F U7,G8,C9,C10,C11,U12,A23,C24,G25,C26,A27,U34, rest 2'-OMe, 3' idT”, the binding result is on record as “no binding”.
On to “GGGAGGUGGACGAACUGCCCUCUACUUUCAUGUUGCUGACGCACAGACGACUCGCUG [T18]”, for which, where the note is “2'-F C and U, 2'-OH A and G, protein details: factor VIII free, Haematologic Technologies Inc., variant of VWF9.14 full length”, the binding result is “no binding”.
